In patent US7999137B2, “Pesticide bi-phenyl-amidine derivatives” (Bayer Cropscience AG, priority 2006, dated 2011):
Some entries share one result that the patent states for a list of compounds.

How the values were obtained:
[1] = tested on: Erysiphe graminis f.sp. hordei; experiment: In vivo preventive test on Erysiphe gramini (powdery mildew on barley); conditions: 1000 ppm of active ingredient, evaluated 7 days after the inoculation, 100% = no disease
[2] = tested on: Puccinia recondita f. Sp. tritici; experiment: In vivo preventive test on Puccinia recondita f. Sp. tritici (wheat brown rust); conditions: 1000 ppm of active ingredient, evaluated 10 days after the inoculation, 100% = no disease
Alternaria solani = experiment: In vivo protective test on Alternaria solani (leaf spot of tomato); conditions: 500 ppm of active ingredient, evaluated 7 days after the inoculation, 100% = no disease
Botrytis cinerea = experiment: In vivo protective test on Botrytis cinerea (beans); conditions: 500 ppm of active ingredient, lesion size 2 days after the inoculation, 100% = no disease
Podosphaera leucotricha = experiment: In vivo protective test on Podosphaera leucotricha (apples); conditions: 100 ppm of active ingredient, evaluated 10 days after the inoculation, 100% = no disease
Sphaerotheca fuliginea = experiment: In vivo protective test on Sphaerotheca fuliginea (cucumbers); conditions: 100 ppm of active ingredient, evaluated 7 days after the inoculation, 100% = no disease
Uromyces appendiculatus = experiment: In vivo protective test on Uromyces appendiculatus (beans); conditions: 100 ppm of active ingredient, evaluated 10 days after the inoculation, 100% = no disease

Q: How did the efficacy [1] turn out when `CCN(C)C=Nc1ccc(-c2ccc(Cl)c(C(F)(F)F)c2)cc1Cl` [Compound 18] was run?
A: ≥ 70%

Q: Which results are given for `CCN(C)C=Nc1cc(C)c(-c2ccc(Oc3ccccc3)cc2)cc1C` [Compound 47]?
A: efficacy [2]: ≥ 70%; efficacy [1]: ≥ 70%; efficacy (Alternaria solani): ≥ 70%; efficacy (Botrytis cinerea): ≥ 70%

Q: With `CCN(C)C=Nc1ccc(-c2ccc(C=NOC)cc2)cc1F` [Compound 77] as the molecule, how does the efficacy (Alternaria solani) read?
A: ≥ 70%

Q: With `CCN(C)C=Nc1ccc(-c2ccc(OC(F)(F)F)cc2)c(Cl)c1` [Compound 100] as the molecule, how does the efficacy [1] read?
A: ≥ 70%

Q: How did the efficacy [2] turn out when `CCN(C)C=Nc1ccc(-c2ccc(C(F)(F)F)cc2)cc1C` [Compound 127] was run?
A: ≥ 70%

Q: And the efficacy [1]?
A: ≥ 70%

Q: Which results are given for `CCN(C)C=Nc1ccc(-c2ccc(C(C)(C)C)cc2)cc1C` [Compound 129]?
A: efficacy [2]: ≥ 70%; efficacy [1]: ≥ 70%; efficacy (Alternaria solani): ≥ 70%; efficacy (Podosphaera leucotricha): ≥ 70%; efficacy (Sphaerotheca fuliginea): ≥ 70%; efficacy (Botrytis cinerea): ≥ 70%; efficacy (Uromyces appendiculatus): ≥ 70%
